Results as given in publication PMC9607104 (Molecules, 2022).

Test: general procedure: Fmoc solid-phase peptide synthesis; Rink Amide-ChemMatrix resin (Biotage), loading 0.52 mmol g^-1
Conditions: whole synthesis, 210 nm

PEPTIDE1{[ac].[dK].[dL].[dT].W.Q.E.L.Y.Q.L.K.Y.K.G.I.[am]}$$$$V2.0
final HPLC purity: >95%

HELM strings list residues between dots; [ac] is acetyl, [am] amide, other brackets name non-standard units.
